Test systems include M229P; M229R; M238P; M238R; M249P; M249R; UACC62P; UACC62R.
Experiment in all cases: reduction in cell viability relative to untreated/vehicle; higher = more growth inhibition
What all share (details): 200 nM; 72 h

Where a name gives a salt, the structure may show the parent alone. This is one part of the list. Repeats are few or missing, and single values can be far off.

Regarding `CCC[C@@H]1C[C@@H](C(=O)N[C@@H]([C@H]2O[C@H](SC)[C@H](O)[C@@H](O)[C@H]2O)[C@H](C)Cl)N(C)C1` [Clindamycin hydrochloride], the “reduction in cell viability” value in the assay with M229P, with M229R, with M238P, in the assay on M238R (matched melanoma line resistant to BRAF inhibitors), in the assay with M249P and with M249R was less than 0% each time. For the same compound, the “reduction in cell viability” value in the assay with UACC62P and in the assay on UACC62R (matched melanoma line resistant to BRAF inhibitors) was less than 0% in each case.
As for `C[C@@H](NCCCc1cccc(C(F)(F)F)c1)c1cccc2ccccc12` [Cinacalcet hydrochloride], the “reduction in cell viability” value in the assay with M229P, with M229R, in the assay on M238P (parental melanoma line), in the assay on M238R, in the assay with M249P and in the assay on M249R (matched melanoma line resistant to BRAF inhibitors) was less than 0% throughout. Further, the “reduction in cell viability” value with UACC62P and in the assay with UACC62R was less than 0% in each case.
With `COc1cc2c(cc1OC)[C@@H]1Cc3ccc(OC)c(OC)c3CN1CC2` [Rotundine], the “reduction in cell viability” value in the assay with M229P, with M229R, with M238P, with M238R, with M249P and in the assay on M249R was less than 0% each time. For the same compound, the “reduction in cell viability” value with UACC62P and with UACC62R was less than 0% each time.
Turning to `CN(CCOc1ccc(CC2SC(=O)NC2=O)cc1)c1ccccn1` (centres undefined) [Rosiglitazone], the “reduction in cell viability” value in the assay with M229P, in the assay with M229R, in the assay on M238P, in the assay on M238R, in the assay with M249P and in the assay on M249R was less than 0% in each case. Besides, the “reduction in cell viability” value with UACC62P and with UACC62R was less than 0% in each case.
Take `CCOc1cc2c(c(F)c1OCC)C(=N)N(CC(=O)c1cc(N3CCOCC3)c(OC)c(C(C)(C)C)c1)C2`: the “reduction in cell viability” value is less than 0% in the assay with M229P; less than 0% in the assay on M229R (matched melanoma line resistant to BRAF inhibitors); 10.6% in the assay on M238P; 16.4% in the assay with M238R; 11.7% in the assay with M249P; less than 0% with M249R. In addition, the “reduction in cell viability” value in the assay with UACC62P came to 19.2%; in the assay with UACC62R, 11.8%.
As to `CC(=O)NCC(=O)N1[C@@H]2CC[C@H]1c1ccc(Nc3ncc(C(F)(F)F)c(NC4CCC4)n3)cc12`, the “reduction in cell viability” value in the assay on M229P (parental melanoma line) amounted to 7.96%; with M229R it was 2.91%; with M238P it was 27.4%; with M238R it was 37.5%; in the assay with M249P, 5.23%; with M249R, 0.57%. In addition, the “reduction in cell viability” value with UACC62P is 26.7%; in the assay with UACC62R it was 59.5%.
Take `CCCCCCCCCCCCCC(=O)N[C@H](CO)[C@H](O)c1ccc([N+](=O)[O-])cc1`: the “reduction in cell viability” value is less than 0% in the assay with M229P; less than 0% in the assay with M229R; less than 0% in the assay with M238P; less than 0% with M238R; 0.35% in the assay with M249P; less than 0% with M249R. In addition, the “reduction in cell viability” value in the assay with UACC62P and in the assay on UACC62R was less than 0% each time.
As to `O=C(CCc1ccc(O)cc1)c1c(O)cc(O)cc1O` [Phloretin], the “reduction in cell viability” value with M229P is less than 0%; in the assay on M229R, less than 0%; with M238P it was less than 0%; in the assay with M238R, less than 0%; with M249P, 4.04%; in the assay with M249R it was 7.56%. Moreover, the “reduction in cell viability” value in the assay on UACC62P (parental melanoma line) was 16.3%; with UACC62R, less than 0%.
Regarding `O=C1NCCc2[nH]c(-c3ccncc3)cc21`, the “reduction in cell viability” value in the assay with M229P, in the assay on M229R, with M238P, in the assay on M238R, in the assay with M249P and with M249R was less than 0% in each case. Besides, the “reduction in cell viability” value in the assay with UACC62P and with UACC62R was less than 0% in each case.
In the case of `CC(=O)N[C@@H](CS)C(=O)O` [Acetylcysteine], the “reduction in cell viability” value with M229P, in the assay with M229R, in the assay on M238P, in the assay on M238R, in the assay with M249P and with M249R was less than 0% throughout. Further, the “reduction in cell viability” value with UACC62P and in the assay on UACC62R was less than 0% each time.
For `c1ccc2c(-c3cnn4cc(-c5ccc(N6CCNCC6)cc5)cnc34)ccnc2c1`, the “reduction in cell viability” value with M229P, in the assay with M229R, in the assay on M238P, with M238R, in the assay with M249P and in the assay with M249R was less than 0% each time. In addition, the “reduction in cell viability” value in the assay with UACC62P and with UACC62R was less than 0% each time.
On to `CN(C)CCC=C1c2ccccc2C=Cc2ccccc21` [Cyclobenzaprine hydrochloride], for which the “reduction in cell viability” value with M229P, in the assay on M229R, in the assay on M238P, with M238R, with M249P and in the assay with M249R was less than 0% in each case. For the same compound, the “reduction in cell viability” value in the assay on UACC62P and with UACC62R was less than 0% in each case.
As to `COc1cc(OC)c(C(=O)CCCN2CCCC2)c(OC)c1` [Buflomedil hydrochloride], the “reduction in cell viability” value in the assay with M229P, with M229R, in the assay with M238P, with M238R, in the assay on M249P (parental melanoma line) and with M249R was less than 0% throughout. Besides, the “reduction in cell viability” value with UACC62P and with UACC62R was less than 0% throughout.
For the compound `CC(=O)SC[C@@H](C)C(=O)N1CCC[C@H]1C(=O)N[C@@H](Cc1ccccc1)C(=O)O` [Alacepril], the “reduction in cell viability” value in the assay on M229P, in the assay on M229R, with M238P, in the assay on M238R, in the assay on M249P and with M249R was less than 0% each time. Further, the “reduction in cell viability” value in the assay with UACC62P and with UACC62R was less than 0% in each case.
In the case of `COc1cc2nccc(Oc3ccc(NC(=O)NC4CC4)c(Cl)c3)c2cc1C(N)=O` [Lenvatinib (E7080)], the “reduction in cell viability” value in the assay with M229P, with M229R, in the assay on M238P, in the assay with M238R, with M249P and in the assay with M249R was less than 0% in each case. The “reduction in cell viability” value with UACC62P and in the assay on UACC62R was less than 0% each time.
For the compound `Cn1cc(-c2ccc3ncc(Cc4ccc5ncccc5c4)n3n2)cn1`, the “reduction in cell viability” value in the assay with M229P, in the assay with M229R, with M238P, in the assay on M238R, in the assay with M249P and in the assay with M249R was less than 0% each time. Besides, the “reduction in cell viability” value in the assay on UACC62P was 12.6%; in the assay with UACC62R it was less than 0%.
For `CCC[S+]([O-])c1ccc2[nH]c(NC(=O)OC)nc2c1` (centres undefined) [Albendazole Oxide], the “reduction in cell viability” value in the assay on M229P, with M229R, in the assay on M238P, with M238R, in the assay on M249P and with M249R was less than 0% throughout. Moreover, the “reduction in cell viability” value in the assay with UACC62P and in the assay with UACC62R was less than 0% in each case.
Take `O=C(Nc1c[nH]nc1-c1nc2ccc(CN3CCOCC3)cc2[nH]1)NC1CC1`: the “reduction in cell viability” value is less than 0% with M229P; 20.4% in the assay on M229R; 19.6% with M238P; 38.3% in the assay with M238R; less than 0% in the assay with M249P; less than 0% with M249R. The “reduction in cell viability” value in the assay on UACC62P is 4.98%; in the assay on UACC62R, 41.2%.
